Experimental data taken from patent US5968823A, “Glycine transporter-transfected avian cells and uses thereof” (Allelix Neuroscience Inc., priority 1998, dated 1999).
For at least one compound, name, drawing or mass did not settle the structure.

System: NMDA receptor
Test: Calcium flux (45Ca++ accumulation) in primary neuronal cortical cell cultures
Assay type: cell-based, rat
Details: NMDA 500 μM alone vs control; 10 minutes room temperature; FIG. 3
Experimental: A functional ion-flux assay used to measure the effect of compounds identified by the present invention relates to the ability to enhance or inhibit calcium flux through the NMDA receptor. This test is performed on suitable cell cultures that have membrane-bound NMDA receptors and glycine transporters. Such cells include neuronal cells generally, including those of the central nervous system, including brain, and cell lines derived therefrom, and any other cell that has been induced or transfected to express NMDA receptors. Calcium used in such a test is commonly the ^45 Ca isotope, although other calcium measuring techniques can be used as well, such as calcium-associated fluorescence and the like. However the calcium is monitored, calcium flux is enhanced or inhibited as a result of the discrete addition of a compound of the present invention. An advantage of this system is that it allows one to monitor the net effect on NMDA receptor function of a compound that interacts with the glycine site on the NMDA receptor and the glycine transporter.
This example illustrates a protocol for measuring calcium flux in primary neuronal cells, which is an indication of NMDA receptor activation. […]
The tissue was chopped with a scalpel and then triturated with a glass pipet that had been fire polished. […] Cells were counted in a suitable counting chamber. […]

CN[C@H](CC(=O)O)C(=O)O [NMDA, N-methyl-D-aspartate]
accumulation of 45Ca++: increased accumulation of ^45 Ca^++
